Assay results taken from the supplement of paper PMC10849652.
The list shows a part of the results.

Amino acid sequences for entries named in this document (tags omitted). A change or cut given only in a name is not applied to a line headed by its entry.
UniProt Q9BYT8, whole entry, looked up: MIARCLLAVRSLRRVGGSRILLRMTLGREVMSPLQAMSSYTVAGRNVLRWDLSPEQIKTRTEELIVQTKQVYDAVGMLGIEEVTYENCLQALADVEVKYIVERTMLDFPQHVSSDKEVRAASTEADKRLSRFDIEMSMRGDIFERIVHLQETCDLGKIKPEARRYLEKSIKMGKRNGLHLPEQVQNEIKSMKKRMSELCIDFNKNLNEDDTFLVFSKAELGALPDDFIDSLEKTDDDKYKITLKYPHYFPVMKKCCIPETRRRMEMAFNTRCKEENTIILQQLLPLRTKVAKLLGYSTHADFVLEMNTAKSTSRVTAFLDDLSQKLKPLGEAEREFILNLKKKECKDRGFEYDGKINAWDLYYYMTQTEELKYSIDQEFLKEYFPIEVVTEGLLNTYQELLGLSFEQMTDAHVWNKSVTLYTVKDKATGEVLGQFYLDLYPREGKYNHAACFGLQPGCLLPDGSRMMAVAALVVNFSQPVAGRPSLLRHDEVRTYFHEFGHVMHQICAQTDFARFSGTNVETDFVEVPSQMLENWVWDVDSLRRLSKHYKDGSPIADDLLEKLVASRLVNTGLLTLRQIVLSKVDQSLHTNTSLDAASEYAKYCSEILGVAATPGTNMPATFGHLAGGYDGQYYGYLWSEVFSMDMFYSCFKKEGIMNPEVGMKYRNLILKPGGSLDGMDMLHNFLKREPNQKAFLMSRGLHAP
UniProt Q9NX24: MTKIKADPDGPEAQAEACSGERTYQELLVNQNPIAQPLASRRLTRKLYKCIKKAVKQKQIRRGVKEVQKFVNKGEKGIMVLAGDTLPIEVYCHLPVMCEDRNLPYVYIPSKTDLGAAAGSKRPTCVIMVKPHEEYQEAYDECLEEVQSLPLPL
UniProt Q9BS92: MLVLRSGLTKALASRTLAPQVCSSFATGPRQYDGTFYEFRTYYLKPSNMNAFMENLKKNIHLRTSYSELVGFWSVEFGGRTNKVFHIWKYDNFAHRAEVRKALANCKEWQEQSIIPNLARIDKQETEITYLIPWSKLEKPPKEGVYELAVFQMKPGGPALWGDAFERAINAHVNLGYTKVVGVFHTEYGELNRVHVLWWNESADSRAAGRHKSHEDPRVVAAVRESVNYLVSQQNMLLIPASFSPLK
UniProt Q8WX92, whole entry, looked up: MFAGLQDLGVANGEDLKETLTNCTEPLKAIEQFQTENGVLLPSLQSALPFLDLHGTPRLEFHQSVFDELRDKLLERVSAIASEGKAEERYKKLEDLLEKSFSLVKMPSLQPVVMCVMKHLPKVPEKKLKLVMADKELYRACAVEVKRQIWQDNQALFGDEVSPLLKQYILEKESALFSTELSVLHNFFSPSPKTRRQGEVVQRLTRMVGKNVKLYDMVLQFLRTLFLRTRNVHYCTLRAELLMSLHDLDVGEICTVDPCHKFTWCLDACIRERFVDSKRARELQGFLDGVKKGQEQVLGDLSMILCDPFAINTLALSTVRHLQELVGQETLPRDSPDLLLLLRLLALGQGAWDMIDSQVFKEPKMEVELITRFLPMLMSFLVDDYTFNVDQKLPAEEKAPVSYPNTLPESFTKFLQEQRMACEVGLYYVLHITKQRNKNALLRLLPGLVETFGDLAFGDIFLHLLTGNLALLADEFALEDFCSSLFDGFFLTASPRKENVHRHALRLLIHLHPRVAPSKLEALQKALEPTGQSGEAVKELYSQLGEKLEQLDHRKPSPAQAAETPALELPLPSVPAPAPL
UniProt Q13423: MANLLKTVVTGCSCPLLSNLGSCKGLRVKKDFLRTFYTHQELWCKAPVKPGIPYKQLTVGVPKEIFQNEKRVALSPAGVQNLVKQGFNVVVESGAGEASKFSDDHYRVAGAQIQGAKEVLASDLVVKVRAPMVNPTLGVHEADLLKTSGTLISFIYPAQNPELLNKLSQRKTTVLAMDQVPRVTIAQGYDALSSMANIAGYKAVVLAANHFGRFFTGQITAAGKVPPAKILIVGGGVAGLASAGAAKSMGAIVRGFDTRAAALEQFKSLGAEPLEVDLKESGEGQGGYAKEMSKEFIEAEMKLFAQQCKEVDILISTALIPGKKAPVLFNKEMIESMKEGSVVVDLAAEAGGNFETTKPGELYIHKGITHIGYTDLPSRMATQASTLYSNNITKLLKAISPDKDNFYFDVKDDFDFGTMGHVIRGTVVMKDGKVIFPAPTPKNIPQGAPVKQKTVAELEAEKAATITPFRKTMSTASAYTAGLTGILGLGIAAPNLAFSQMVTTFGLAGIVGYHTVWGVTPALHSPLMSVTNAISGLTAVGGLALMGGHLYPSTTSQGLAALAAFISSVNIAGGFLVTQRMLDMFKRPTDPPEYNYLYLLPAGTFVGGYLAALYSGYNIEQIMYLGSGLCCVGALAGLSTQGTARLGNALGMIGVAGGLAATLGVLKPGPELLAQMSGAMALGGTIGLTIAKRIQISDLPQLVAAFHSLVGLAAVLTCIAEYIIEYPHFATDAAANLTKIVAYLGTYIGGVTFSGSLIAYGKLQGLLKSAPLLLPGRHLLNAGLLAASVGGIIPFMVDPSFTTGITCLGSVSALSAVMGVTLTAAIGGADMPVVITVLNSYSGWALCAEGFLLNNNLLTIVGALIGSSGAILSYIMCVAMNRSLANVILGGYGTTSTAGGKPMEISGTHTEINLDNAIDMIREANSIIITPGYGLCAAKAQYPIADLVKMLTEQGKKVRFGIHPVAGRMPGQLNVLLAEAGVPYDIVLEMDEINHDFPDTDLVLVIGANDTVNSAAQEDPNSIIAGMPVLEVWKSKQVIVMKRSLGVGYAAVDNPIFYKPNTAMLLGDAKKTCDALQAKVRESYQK
UniProt Q9NPE2: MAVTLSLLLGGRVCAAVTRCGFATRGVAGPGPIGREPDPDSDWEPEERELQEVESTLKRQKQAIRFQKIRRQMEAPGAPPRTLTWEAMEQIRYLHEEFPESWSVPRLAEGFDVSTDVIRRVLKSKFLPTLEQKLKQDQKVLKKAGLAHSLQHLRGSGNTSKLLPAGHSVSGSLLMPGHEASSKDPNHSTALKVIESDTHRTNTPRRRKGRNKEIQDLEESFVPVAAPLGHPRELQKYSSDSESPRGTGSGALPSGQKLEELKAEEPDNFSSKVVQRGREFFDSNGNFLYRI
UniProt P40261: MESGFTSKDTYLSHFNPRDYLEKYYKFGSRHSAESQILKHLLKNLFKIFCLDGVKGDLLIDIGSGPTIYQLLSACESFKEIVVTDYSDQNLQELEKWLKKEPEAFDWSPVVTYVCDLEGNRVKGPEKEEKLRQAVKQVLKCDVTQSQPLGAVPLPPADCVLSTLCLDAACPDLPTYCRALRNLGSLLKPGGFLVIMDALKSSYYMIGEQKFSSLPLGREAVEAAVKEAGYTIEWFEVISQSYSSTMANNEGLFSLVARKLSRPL
UniProt Q92686, whole entry, looked up: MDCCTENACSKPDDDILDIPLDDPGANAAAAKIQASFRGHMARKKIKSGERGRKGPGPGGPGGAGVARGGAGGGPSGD
UniProt Q8IXH7, whole entry, looked up: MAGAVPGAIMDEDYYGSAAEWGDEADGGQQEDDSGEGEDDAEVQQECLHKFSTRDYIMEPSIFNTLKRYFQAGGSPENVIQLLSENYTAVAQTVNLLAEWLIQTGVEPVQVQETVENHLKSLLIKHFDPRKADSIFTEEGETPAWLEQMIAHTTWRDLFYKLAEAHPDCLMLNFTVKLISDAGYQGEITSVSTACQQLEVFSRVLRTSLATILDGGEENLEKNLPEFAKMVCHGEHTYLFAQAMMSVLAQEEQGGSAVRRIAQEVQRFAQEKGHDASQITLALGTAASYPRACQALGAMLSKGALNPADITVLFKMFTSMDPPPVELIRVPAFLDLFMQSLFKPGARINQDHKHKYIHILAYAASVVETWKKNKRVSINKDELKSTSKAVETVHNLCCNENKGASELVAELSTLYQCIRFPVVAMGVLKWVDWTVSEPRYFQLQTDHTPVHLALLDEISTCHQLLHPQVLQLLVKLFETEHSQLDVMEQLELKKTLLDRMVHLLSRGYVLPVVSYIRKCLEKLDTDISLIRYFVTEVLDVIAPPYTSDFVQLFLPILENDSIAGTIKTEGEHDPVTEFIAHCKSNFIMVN
UniProt O60361, whole entry, looked up: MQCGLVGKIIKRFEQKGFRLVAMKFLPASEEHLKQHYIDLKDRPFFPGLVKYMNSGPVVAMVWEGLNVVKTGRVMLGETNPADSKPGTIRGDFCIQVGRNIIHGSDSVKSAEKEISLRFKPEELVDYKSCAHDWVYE
UniProt Q8TDX7: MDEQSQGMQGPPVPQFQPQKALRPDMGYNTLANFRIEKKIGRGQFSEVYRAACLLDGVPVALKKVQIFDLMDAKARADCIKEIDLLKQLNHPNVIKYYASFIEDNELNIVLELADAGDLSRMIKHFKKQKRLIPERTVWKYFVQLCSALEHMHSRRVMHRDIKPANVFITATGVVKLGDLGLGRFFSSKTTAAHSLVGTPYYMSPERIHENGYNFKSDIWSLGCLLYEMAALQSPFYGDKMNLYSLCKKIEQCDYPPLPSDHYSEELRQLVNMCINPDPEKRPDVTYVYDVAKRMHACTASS
UniProt Q9Y239: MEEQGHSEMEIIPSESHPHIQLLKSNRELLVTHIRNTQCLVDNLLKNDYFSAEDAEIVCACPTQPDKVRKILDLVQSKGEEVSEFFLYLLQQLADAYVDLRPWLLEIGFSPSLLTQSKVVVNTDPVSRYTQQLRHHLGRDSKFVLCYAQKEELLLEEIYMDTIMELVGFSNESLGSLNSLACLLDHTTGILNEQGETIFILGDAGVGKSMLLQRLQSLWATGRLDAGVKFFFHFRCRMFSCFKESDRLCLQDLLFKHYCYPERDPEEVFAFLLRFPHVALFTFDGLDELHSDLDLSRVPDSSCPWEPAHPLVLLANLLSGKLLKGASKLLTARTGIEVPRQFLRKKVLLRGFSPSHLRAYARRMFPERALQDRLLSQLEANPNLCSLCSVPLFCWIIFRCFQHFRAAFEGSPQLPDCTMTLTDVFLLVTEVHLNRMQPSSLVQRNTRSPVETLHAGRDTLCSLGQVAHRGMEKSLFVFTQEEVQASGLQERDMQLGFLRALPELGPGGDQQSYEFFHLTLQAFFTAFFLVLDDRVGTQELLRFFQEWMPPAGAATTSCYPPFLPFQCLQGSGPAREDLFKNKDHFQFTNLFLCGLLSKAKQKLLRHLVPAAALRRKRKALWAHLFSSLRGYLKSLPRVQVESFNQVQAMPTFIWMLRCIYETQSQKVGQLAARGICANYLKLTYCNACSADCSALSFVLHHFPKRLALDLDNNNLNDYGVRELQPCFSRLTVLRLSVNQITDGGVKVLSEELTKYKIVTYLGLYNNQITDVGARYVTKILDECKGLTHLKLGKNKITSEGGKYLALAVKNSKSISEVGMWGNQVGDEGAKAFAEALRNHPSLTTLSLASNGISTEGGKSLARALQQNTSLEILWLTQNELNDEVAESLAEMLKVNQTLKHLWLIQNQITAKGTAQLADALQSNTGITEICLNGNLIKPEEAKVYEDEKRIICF
UniProt Q9UGY1: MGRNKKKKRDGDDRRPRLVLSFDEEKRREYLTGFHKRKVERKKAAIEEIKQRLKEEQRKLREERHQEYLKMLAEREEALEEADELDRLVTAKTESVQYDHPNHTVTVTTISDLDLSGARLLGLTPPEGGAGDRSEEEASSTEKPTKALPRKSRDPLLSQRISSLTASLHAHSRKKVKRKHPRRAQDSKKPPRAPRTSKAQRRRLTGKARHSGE
UniProt Q9Y5B8, whole entry, looked up: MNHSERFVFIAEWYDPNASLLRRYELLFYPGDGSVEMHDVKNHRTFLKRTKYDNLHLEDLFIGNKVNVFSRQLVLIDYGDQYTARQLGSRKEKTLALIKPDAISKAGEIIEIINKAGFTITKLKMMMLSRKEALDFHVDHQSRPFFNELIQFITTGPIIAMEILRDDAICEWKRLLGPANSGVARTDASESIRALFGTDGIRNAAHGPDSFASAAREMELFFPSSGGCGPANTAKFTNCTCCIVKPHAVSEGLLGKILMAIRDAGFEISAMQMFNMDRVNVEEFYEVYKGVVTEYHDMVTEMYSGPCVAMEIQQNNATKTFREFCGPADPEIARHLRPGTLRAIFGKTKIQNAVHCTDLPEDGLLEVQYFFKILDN
UniProt P49116: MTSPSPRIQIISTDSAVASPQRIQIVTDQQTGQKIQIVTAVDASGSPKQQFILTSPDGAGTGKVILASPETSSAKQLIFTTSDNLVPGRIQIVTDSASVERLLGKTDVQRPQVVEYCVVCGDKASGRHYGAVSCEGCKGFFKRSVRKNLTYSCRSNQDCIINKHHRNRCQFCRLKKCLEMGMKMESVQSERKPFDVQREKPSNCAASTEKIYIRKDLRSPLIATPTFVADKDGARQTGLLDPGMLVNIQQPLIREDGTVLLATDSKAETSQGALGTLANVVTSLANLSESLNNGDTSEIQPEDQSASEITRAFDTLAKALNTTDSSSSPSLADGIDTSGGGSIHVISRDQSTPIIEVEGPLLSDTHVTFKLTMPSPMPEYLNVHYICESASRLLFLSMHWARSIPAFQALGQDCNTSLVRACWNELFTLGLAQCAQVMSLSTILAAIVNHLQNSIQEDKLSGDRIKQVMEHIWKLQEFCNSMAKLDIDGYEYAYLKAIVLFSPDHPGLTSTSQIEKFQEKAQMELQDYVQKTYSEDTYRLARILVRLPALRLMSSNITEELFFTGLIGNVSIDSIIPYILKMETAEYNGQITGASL

compound: Cc1ccc(NC(=O)c2ccc(CN3CC[C@H](N(C)C)C3)c(C(F)(F)F)c2)cc1Nc1nccc(-c2cncnc2)n1 [bafetinib]; assay: log2 fold change, soluble protein after heating vs DMSO (PISA); higher = thermal stabilisation; K562 cells, 10 uM, 30 min; active = over 0.2 and 3.5 SD of the protein, either way, in both replicates (recomputed)
Summary of the method: (§1)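 K562 cells (2×10^6 cells/mL) were treated with 10 μM compound for 30 min, and aliquots were heated for 3 min over 48°C-58°C. Pooled aliquots were extracted in PBS with 0.5% NP-40 at 4°C, and the supernatant after 21,000xg for 90 min was measured by TMTpro 16plex LC-MS/MS with channel sums equalised. Reported thermal stability, relative to control samples and from duplicates, is a log2 fold change.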

log2 fold change, inactive:
NSD3 (UniProt Q9BZ95) -0.234, NFATC4 isoform 2 (UniProt Q14934) 0.041, NFAT5 isoform 5 (UniProt O94916) -0.086, NGLY1 (UniProt Q96IV0) 0.039, NSF (UniProt P46459) -0.008, NLN (UniProt Q9BYT8) -0.045, NHP2 (UniProt Q9NX24) 0.072, NIPSNAP3B (UniProt Q9BS92) -0.085, NELFB isoform 2 (UniProt Q8WX92) -0.088, NFXL1 (UniProt Q6ZNB6) -0.012, NSMAF (UniProt Q92636) -0.051, NNT (UniProt Q13423) -0.02, NPL (UniProt Q9BXD5) 0.085, NOP56 (UniProt O00567) 0.225, NGRN (UniProt Q9NPE2) 0.063, NNMT (UniProt P40261) -0.038, NFATC3 (UniProt Q12968) 0.041, NFKB1 isoform 2 (UniProt P19838) -0.018, NRGN (UniProt Q92686) -0.199, NELFCD (UniProt Q8IXH7) 0.116, NPLOC4 isoform 2 (UniProt Q8TAT6) -0.055, NME2P1 (UniProt O60361) 0.058, NSD1 (UniProt Q96L73) -0.013, NRAS (UniProt P01111) -0.023, NOC3L (UniProt Q8WTT2) -0.125, NEK7 (UniProt Q8TDX7) -0.091, NEMF (UniProt O60524) 0.271, NOD1 (UniProt Q9Y239) 0.04, NOC2L (UniProt Q9Y3T9) -0.049, NMI (UniProt Q13287) -0.011, NOA1 (UniProt Q8NC60) -0.064, NOP2 isoform 4 (UniProt P46087) 0.274, NOL7 (UniProt Q9UMY1) 0.284, NOL12 (UniProt Q9UGY1) 0.183, NME7 (UniProt Q9Y5B8) -0.14, NRM (UniProt Q8IXM6) -0.016, NOB1 (UniProt Q9ULX3) 0.014, NR2C2 isoform 2 (UniProt P49116) -0.093, NELFA (UniProt Q9H3P2) -0.145

compound: Cc1cccc(CC(=O)N2CCc3c2ccc(-c2cn(C)c4ncnc(N)c24)c3F)n1; assay: as above
Summary of the method: as §1

log2 fold change, inactive:
NSD3 (UniProt Q9BZ95) 0.036, NFATC4 isoform 2 (UniProt Q14934) -0.05, NFAT5 isoform 5 (UniProt O94916) 0.012, NGLY1 (UniProt Q96IV0) 0.055, NSF (UniProt P46459) 0.02, NLN (UniProt Q9BYT8) -0.038, NHP2 (UniProt Q9NX24) -0.027, NIPSNAP3B (UniProt Q9BS92) -0.054, NELFB isoform 2 (UniProt Q8WX92) 0.046, NFXL1 (UniProt Q6ZNB6) -0.006, NSMAF (UniProt Q92636) 0.005, NNT (UniProt Q13423) 0.056, NPL (UniProt Q9BXD5) -0.012, NOP56 (UniProt O00567) -0.099, NGRN (UniProt Q9NPE2) 0.042, NNMT (UniProt P40261) 0.068, NFATC3 (UniProt Q12968) -0.064, NFKB1 isoform 2 (UniProt P19838) 0.159, NRGN (UniProt Q92686) -0.581, NELFCD (UniProt Q8IXH7) -0.111, NPLOC4 isoform 2 (UniProt Q8TAT6) 0.011, NME2P1 (UniProt O60361) 0.059, NSD1 (UniProt Q96L73) -0.011, NRAS (UniProt P01111) 0.012, NOC3L (UniProt Q8WTT2) -0.277, NEK7 (UniProt Q8TDX7) 0.017, NEMF (UniProt O60524) -0.029, NOD1 (UniProt Q9Y239) -0.215, NOC2L (UniProt Q9Y3T9) -0.05, NMI (UniProt Q13287) -0.034, NOA1 (UniProt Q8NC60) -0.016, NOP2 isoform 4 (UniProt P46087) -0.065, NOL7 (UniProt Q9UMY1) -0.107, NOL12 (UniProt Q9UGY1) -0.006, NME7 (UniProt Q9Y5B8) 0.071, NRM (UniProt Q8IXM6) -0.062, NOB1 (UniProt Q9ULX3) 0.093, NR2C2 isoform 2 (UniProt P49116) 0.027, NELFA (UniProt Q9H3P2) 0.027
